Measurements reported in the supplement of paper PMC10849652.
The list shows a part of the results.

Chains of the proteins cited; added tags and fusions are not shown. Lines headed by an entry give the natural chain unless they say otherwise; changes in a name come on top.
UniProt Q9HB96: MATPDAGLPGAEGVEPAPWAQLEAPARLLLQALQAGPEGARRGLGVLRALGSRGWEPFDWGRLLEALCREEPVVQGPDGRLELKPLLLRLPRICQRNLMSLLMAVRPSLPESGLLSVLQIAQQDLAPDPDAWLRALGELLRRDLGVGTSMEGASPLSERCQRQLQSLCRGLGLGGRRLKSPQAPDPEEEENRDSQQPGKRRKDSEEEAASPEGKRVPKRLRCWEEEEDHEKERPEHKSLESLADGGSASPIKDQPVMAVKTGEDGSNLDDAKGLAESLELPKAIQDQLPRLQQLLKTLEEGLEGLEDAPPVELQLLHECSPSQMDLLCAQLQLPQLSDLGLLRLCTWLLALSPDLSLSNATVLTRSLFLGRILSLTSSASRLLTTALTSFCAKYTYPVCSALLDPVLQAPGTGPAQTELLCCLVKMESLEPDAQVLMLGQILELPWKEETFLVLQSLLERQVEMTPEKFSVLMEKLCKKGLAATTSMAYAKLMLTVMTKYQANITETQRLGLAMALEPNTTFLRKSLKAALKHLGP
UniProt Q8N3Y1: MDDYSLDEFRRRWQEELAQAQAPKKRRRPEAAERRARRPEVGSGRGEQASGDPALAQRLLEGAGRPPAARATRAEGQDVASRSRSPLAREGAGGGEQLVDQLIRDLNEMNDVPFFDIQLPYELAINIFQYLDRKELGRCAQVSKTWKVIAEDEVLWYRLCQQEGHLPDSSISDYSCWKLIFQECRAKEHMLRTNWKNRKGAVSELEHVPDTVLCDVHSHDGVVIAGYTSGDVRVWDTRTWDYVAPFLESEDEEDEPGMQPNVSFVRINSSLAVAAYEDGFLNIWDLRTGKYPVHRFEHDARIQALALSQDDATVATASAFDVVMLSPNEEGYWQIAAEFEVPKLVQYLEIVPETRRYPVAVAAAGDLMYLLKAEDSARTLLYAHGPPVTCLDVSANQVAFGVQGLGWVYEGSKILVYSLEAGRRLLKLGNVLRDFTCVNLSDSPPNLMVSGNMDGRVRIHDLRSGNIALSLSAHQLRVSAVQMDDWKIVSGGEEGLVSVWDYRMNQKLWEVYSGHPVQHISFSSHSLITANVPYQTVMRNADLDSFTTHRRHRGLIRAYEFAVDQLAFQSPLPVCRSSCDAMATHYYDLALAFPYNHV
UniProt P16591: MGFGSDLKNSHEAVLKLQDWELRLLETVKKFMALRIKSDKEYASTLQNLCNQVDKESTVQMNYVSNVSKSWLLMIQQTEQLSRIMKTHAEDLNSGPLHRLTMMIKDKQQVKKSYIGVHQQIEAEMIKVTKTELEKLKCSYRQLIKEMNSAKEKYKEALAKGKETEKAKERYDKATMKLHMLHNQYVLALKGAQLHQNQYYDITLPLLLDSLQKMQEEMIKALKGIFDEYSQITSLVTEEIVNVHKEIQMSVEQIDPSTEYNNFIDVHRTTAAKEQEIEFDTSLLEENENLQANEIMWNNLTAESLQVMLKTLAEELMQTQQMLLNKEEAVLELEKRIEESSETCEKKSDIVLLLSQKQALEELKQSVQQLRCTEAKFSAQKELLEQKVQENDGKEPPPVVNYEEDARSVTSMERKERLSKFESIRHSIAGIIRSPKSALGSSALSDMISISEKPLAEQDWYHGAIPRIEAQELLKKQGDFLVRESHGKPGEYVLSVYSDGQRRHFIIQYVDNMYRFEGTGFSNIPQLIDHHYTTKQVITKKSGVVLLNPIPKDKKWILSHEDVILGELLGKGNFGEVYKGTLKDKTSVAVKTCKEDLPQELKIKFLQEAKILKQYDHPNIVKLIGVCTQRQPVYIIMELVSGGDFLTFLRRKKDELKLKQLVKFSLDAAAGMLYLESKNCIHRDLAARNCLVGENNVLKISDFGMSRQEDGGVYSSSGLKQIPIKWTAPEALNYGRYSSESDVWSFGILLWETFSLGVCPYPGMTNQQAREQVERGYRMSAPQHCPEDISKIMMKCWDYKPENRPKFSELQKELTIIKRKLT
UniProt Q96ME1: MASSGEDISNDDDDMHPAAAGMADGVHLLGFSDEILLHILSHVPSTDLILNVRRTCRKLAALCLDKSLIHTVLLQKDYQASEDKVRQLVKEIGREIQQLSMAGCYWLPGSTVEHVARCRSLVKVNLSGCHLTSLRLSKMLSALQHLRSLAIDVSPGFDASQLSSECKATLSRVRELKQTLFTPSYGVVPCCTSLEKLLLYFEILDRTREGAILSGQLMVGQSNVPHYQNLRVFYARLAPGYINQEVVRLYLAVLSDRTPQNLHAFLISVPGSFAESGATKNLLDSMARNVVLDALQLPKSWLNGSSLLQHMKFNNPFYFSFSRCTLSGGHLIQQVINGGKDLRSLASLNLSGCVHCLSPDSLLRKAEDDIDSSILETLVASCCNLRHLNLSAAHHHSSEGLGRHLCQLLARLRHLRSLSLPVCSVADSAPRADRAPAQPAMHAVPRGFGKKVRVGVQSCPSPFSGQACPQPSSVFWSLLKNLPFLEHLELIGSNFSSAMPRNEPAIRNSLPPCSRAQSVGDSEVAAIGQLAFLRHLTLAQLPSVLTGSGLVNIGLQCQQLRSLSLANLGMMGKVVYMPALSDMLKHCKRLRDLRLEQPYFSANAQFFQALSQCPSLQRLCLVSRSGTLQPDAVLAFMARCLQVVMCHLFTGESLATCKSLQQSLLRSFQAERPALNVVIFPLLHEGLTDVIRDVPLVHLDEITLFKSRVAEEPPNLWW
UniProt Q4VC44: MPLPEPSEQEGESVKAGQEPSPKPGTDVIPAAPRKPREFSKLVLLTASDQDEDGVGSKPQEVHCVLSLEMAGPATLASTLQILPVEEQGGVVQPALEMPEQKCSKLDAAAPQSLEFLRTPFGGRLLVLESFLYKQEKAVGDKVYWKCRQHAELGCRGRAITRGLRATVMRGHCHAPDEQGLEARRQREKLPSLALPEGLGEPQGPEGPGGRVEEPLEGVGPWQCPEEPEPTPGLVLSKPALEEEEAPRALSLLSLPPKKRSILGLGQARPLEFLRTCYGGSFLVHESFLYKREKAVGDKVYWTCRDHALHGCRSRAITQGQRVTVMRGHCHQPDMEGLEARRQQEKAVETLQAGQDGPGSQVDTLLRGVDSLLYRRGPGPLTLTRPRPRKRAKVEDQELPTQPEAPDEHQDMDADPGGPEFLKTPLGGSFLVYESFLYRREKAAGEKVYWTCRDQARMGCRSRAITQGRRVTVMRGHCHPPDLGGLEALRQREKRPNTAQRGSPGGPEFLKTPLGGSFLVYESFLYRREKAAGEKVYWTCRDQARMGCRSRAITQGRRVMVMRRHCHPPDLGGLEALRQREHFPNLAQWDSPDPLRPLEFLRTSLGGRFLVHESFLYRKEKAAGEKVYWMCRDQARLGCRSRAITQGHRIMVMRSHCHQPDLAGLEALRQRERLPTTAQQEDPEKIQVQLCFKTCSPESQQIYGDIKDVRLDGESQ
UniProt Q9H9S5: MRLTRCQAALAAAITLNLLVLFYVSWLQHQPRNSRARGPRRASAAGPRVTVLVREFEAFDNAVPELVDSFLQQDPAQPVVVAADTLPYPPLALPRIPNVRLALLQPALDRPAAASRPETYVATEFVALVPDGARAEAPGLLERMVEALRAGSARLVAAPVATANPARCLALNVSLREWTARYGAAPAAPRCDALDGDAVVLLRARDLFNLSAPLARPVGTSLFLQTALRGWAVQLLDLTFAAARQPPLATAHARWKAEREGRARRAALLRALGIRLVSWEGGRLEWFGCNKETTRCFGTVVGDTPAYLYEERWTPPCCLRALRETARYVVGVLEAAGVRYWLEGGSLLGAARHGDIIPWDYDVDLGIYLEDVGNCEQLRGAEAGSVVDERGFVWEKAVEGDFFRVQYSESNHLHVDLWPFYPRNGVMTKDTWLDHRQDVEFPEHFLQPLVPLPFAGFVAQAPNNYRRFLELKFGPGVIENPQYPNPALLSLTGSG
UniProt O94887: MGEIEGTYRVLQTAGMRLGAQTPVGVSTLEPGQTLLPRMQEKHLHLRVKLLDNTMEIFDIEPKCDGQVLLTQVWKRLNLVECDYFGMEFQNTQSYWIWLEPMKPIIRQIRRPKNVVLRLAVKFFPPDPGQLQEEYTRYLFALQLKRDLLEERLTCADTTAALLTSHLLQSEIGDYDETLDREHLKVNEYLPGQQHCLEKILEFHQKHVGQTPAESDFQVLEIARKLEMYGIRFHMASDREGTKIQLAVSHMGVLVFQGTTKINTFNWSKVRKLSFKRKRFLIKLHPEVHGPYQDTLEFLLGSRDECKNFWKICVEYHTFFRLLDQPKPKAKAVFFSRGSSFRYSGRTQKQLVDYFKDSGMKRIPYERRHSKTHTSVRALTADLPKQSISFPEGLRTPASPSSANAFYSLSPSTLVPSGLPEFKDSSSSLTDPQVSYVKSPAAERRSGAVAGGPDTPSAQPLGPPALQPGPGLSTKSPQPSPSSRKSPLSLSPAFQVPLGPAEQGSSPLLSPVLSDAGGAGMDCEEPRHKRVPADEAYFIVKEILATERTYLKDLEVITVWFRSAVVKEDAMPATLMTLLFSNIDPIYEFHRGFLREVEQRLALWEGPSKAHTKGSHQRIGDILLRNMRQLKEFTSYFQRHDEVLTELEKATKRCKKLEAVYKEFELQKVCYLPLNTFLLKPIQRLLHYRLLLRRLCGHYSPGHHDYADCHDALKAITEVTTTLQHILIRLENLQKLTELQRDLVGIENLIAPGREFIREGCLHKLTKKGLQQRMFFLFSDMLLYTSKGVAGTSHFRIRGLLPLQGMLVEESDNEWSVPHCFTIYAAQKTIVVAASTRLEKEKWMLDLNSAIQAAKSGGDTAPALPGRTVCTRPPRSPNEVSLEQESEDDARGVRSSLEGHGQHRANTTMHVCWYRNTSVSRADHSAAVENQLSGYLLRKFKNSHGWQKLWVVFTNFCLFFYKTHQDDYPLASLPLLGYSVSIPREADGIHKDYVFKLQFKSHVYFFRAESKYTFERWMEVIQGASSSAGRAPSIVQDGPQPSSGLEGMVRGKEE
UniProt P0C5J1: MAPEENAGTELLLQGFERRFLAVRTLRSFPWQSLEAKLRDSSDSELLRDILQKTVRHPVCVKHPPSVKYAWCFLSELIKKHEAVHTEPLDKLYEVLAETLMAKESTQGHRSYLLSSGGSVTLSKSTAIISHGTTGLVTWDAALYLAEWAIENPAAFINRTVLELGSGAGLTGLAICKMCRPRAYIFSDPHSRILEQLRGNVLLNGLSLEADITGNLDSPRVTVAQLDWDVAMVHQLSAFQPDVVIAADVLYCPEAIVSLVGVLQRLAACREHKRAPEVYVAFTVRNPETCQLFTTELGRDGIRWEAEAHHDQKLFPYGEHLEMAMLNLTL
UniProt P15407: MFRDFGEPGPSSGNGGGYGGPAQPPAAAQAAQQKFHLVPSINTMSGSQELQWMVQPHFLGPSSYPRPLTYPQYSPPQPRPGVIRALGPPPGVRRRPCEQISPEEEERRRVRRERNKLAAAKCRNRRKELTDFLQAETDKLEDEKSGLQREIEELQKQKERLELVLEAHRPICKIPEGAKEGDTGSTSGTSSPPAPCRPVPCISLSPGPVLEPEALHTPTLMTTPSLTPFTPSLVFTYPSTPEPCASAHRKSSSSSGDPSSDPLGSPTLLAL
UniProt O95363: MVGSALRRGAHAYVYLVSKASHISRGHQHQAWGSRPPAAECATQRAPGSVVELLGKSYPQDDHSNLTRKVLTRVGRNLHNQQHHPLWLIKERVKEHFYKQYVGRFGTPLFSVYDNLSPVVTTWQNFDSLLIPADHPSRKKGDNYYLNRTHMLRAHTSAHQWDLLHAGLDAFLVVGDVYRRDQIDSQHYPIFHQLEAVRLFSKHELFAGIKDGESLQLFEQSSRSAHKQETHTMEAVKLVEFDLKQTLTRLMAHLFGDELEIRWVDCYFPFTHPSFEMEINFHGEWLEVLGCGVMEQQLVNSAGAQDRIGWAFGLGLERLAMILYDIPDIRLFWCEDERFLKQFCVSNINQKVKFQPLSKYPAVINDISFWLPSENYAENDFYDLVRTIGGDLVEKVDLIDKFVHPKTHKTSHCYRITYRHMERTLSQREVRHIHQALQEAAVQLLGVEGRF
UniProt Q96SL8: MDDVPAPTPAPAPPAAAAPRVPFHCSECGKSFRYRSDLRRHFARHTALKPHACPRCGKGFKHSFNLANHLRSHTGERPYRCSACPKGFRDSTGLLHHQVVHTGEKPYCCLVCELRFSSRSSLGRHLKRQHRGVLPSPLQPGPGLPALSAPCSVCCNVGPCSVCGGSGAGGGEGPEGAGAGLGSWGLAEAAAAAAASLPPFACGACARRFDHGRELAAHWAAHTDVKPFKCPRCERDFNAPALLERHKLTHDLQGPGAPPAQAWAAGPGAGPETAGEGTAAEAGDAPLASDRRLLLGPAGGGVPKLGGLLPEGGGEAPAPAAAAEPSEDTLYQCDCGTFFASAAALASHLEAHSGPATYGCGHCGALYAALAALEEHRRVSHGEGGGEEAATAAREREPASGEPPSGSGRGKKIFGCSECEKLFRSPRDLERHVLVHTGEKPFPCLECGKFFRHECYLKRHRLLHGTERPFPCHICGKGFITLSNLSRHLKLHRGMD

What was measured:
Test in all cases: log2 fold change, soluble protein after heating vs DMSO (PISA); higher = thermal stabilisation; K562 lysate, 10 uM; active = over 0.2 and 3.5 SD of the protein, either way, in both replicates (recomputed)
lapatinib = compound: CS(=O)(=O)CCNCc1ccc(-c2ccc3ncnc(Nc4ccc(OCc5cccc(F)c5)c(Cl)c4)c3c2)o1 [lapatinib]
In short: (§1)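 To prepare the extract, K562 pellets were dounce-homogenised in PBS pH 7.4 with 1 mM MgCl2, giving crude material at 1 mg/mL protein. This was treated with 10 μM compound for 30 min, then heated in aliquots for 3 min over 48°C-58°C before pooling and addition of NP-40 to 0.5% at 4°C. Centrifugation at 21,000xg for 90 min left soluble protein in the supernatant, which TMTpro 16plex LC-MS/MS quantified with equalised channel sums. Results are log-two fold changes in thermal stability compared with solvent controls, from duplicates.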

crizotinib = compound: C[C@@H](Oc1cc(-c2cnn(C3CCNCC3)c2)cnc1N)c1c(Cl)ccc(F)c1Cl [crizotinib]
In short: as §1

[1] = compound: C[C@H](C1=CC=C(C=C1)C(=O)NC2=C3C=CNC3=NC=C2)N
In short: as §1

duvelisib = compound: C[C@H](Nc1ncnc2nc[nH]c12)c1cc2cccc(Cl)c2c(=O)n1-c1ccccc1 [duvelisib]
In short: as §1

gandotinib = compound: Cc1cc(Nc2cc(CN3CCOCC3)c3nc(C)c(Cc4ccc(Cl)cc4F)n3n2)n[nH]1 [gandotinib]
In short: as §1

doramapimod = compound: Cc1ccc(-n2nc(C(C)(C)C)cc2NC(=O)Nc2ccc(OCCN3CCOCC3)c3ccccc23)cc1 [doramapimod]
In short: as §1

[2] = compound: Cc1cccc(CC(=O)N2CCc3c2ccc(-c2cn(C)c4ncnc(N)c24)c3F)n1
In short: as §1

nilotinib = compound: Cc1cn(-c2cc(NC(=O)c3ccc(C)c(Nc4nccc(-c5cccnc5)n4)c3)cc(C(F)(F)F)c2)cn1 [nilotinib]
In short: as §1

[3] = compound: Cc1nc(Nc2n[nH]c3c2CN(C(=O)N[C@H](CN(C)C)c2ccccc2)C3(C)C)c2sccc2n1
In short: as §1

dasatinib = compound: Cc1nc(Nc2ncc(C(=O)Nc3c(C)cccc3Cl)s2)cc(N2CCN(CCO)CC2)n1 [dasatinib]
In short: as §1

[4] = compound: Cc1ncc(-c2ccnc(Nc3ccc(S(C)(=O)=O)cc3)n2)n1C(C)C
In short: as §1

[5] = compound: Cn1cc(-c2ccc3c(c2)CCN3C(=O)Cc2cccc(C(F)(F)F)c2)c2c(N)ncnc21
In short: as §1

quisinostat = compound: Cn1cc(CNCC2CCN(c3ncc(C(=O)NO)cn3)CC2)c2ccccc21 [quisinostat]
In short: as §1

tipifarnib = compound: Cn1cncc1[C@@](N)(c1ccc(Cl)cc1)c1ccc2c(c1)c(-c1cccc(Cl)c1)cc(=O)n2C [tipifarnib]
In short: as §1

[6] = compound: NC(=O)Nc1cc(-c2cccc(F)c2)sc1C(=O)N[C@H]1CCCNC1
In short: as §1

[7] = compound: NC(=O)c1cnc(N[C@@H]2CCCC[C@@H]2N)nc1Nc1cccc(-n2nccn2)c1
In short: as §1

pictilisib = compound: CS(=O)(=O)N1CCN(Cc2cc3nc(-c4cccc5[nH]ncc45)nc(N4CCOCC4)c3s2)CC1 [pictilisib]
In short: as §1

tozasertib = compound: Cc1cc(Nc2cc(N3CCN(C)CC3)nc(Sc3ccc(NC(=O)C4CC4)cc3)n2)n[nH]1 [tozasertib]
In short: as §1

bafetinib = compound: Cc1ccc(NC(=O)c2ccc(CN3CC[C@H](N(C)C)C3)c(C(F)(F)F)c2)cc1Nc1nccc(-c2cncnc2)n1 [bafetinib]
In short: as §1

[8] = compound: NC1(c2ccc(-c3nc4ccn5c(=O)[nH]nc5c4cc3-c3ccccc3)cc2)CCC1
In short: as §1

Measured: log2 fold change

FANCE (UniProt Q9HB96)
inactive: lapatinib 0.087 | crizotinib -0.059 | [1] -0.129 | duvelisib 0.029 | gandotinib -0.314 | doramapimod -0.046 | [2] 0.067 | nilotinib 0.036 | [3] -0.061 | dasatinib -0.037 | [4] -0.057 | [5] -0.025 | quisinostat -0.04 | tipifarnib 0.062 | [6] 0.043 | [7] -0.011

FBXW8 (UniProt Q8N3Y1)
inactive: lapatinib 0.031 | pictilisib 0.087 | tozasertib -0.036 | bafetinib 0.126 | nilotinib -0.011 | [3] 0.178 | [4] 0.21 | tipifarnib 0.28 | [7] 0.039 | [8] -0.216

FER (UniProt P16591)
inactive: lapatinib 0.268 | pictilisib -0.25 | crizotinib 0.426 | [1] -0.222 | duvelisib -0.051 | gandotinib 0.371 | tozasertib 0.077 | doramapimod 0.029 | bafetinib -0.061 | [2] 0.082 | nilotinib -0.123 | [3] 0.331 | dasatinib 0.127 | [4] 0 | [5] 0.05 | quisinostat -0.166 | tipifarnib -0.093 | [7] 0.26 | [8] -0.006

Random excerpt: 2 entries already listed, in no set order.
FER (UniProt P16591)
inactive: lapatinib 0.268 | pictilisib -0.25 | crizotinib 0.426 | [1] -0.222 | duvelisib -0.051 | gandotinib 0.371 | tozasertib 0.077 | doramapimod 0.029 | bafetinib -0.061 | [2] 0.082 | nilotinib -0.123 | [3] 0.331 | dasatinib 0.127 | [4] 0 | [5] 0.05 | quisinostat -0.166 | tipifarnib -0.093 | [7] 0.26 | [8] -0.006

FANCE (UniProt Q9HB96)
inactive: lapatinib 0.087 | crizotinib -0.059 | [1] -0.129 | duvelisib 0.029 | gandotinib -0.314 | doramapimod -0.046 | [2] 0.067 | nilotinib 0.036 | [3] -0.061 | dasatinib -0.037 | [4] -0.057 | [5] -0.025 | quisinostat -0.04 | tipifarnib 0.062 | [6] 0.043 | [7] -0.011

(next part)

FBXL18 isoform 4 (UniProt Q96ME1)
inactive: lapatinib 0.004 | pictilisib -0.022 | crizotinib 0.009 | [1] -0.039 | duvelisib 0.009 | gandotinib 0.015 | tozasertib 0 | doramapimod 0.021 | bafetinib 0.027 | [2] -0.022 | nilotinib 0.038 | [3] -0.044 | dasatinib -0.004 | [4] 0.033 | [5] 0.013 | quisinostat 0.009 | tipifarnib -0.051 | [6] 0.026 | [7] 0.012 | [8] 0.01

FLYWCH1 isoform 3 (UniProt Q4VC44)
inactive: lapatinib 0.067 | crizotinib -0.101 | duvelisib -0.057 | doramapimod -0.138 | nilotinib 0.145 | [3] -0.126 | dasatinib 0.075 | [4] -0.129 | [5] -0.026 | quisinostat 0.089 | tipifarnib -0.225 | [6] -0.064 | [7] 0.003

FKRP (UniProt Q9H9S5)
inactive: lapatinib -0.001 | crizotinib -0.074 | [1] -0.278 | duvelisib 0.105 | gandotinib 0.107 | tozasertib 0.001 | doramapimod -0.052 | [2] 0.107 | dasatinib -0.125 | [5] -0.016 | quisinostat -0.098 | [6] 0.031 | [7] -0.209 | [8] 0.001

FARP2 (UniProt O94887)
inactive: lapatinib 0.031 | pictilisib -0.208 | crizotinib -0.026 | [1] -0.371 | duvelisib 0 | gandotinib -0.271 | doramapimod -0.088 | bafetinib -0.041 | [2] 0.118 | nilotinib -0.046 | [3] -0.102 | dasatinib -0.033 | [4] -0.076 | [5] -0.092 | quisinostat 0.022 | tipifarnib -0.192 | [6] -0.038 | [7] -0.189 | [8] -0.035

FAM86B2 (UniProt P0C5J1)
inactive: lapatinib 0.058 | pictilisib -0.017 | bafetinib -0.105 | nilotinib -0.043 | [3] 0.002 | [4] 0.21 | tipifarnib 0.089 | [7] -0.091

FOSL1 (UniProt P15407)
inactive: lapatinib 0.027 | crizotinib 0.161 | [1] -0.145 | duvelisib -0.191 | gandotinib 0.164 | doramapimod -0.002 | [2] 0.082 | nilotinib -0.125 | [3] 0.014 | dasatinib 0.048 | [4] 0.248 | [5] 0.089 | quisinostat -0.046 | tipifarnib -0.224 | [6] -0.167 | [7] -0.089

FARS2 (UniProt O95363)
inactive: lapatinib -0.268 | pictilisib -0.099 | crizotinib 0.017 | [1] -0.031 | gandotinib 0.03 | tozasertib -0.042 | doramapimod 0.129 | bafetinib 0.023 | [2] 0.066 | nilotinib 0.383 | [3] -0.228 | [4] -0.226 | quisinostat 0.021 | tipifarnib 0.151 | [6] -0.002 | [7] 0.126 | [8] 0.012

FER isoform 3 (UniProt P16591)
inactive: lapatinib 0.004 | crizotinib 0.406 | [1] 0.096 | gandotinib 0.496 | doramapimod -0.013 | [2] -0.014 | quisinostat -0.266 | [7] -0.057

FIZ1 (UniProt Q96SL8)
inactive: lapatinib 0.191 | pictilisib 0.049 | [1] 0.042 | gandotinib -0.14 | bafetinib 0.033 | [2] 0.273 | nilotinib -0.061 | [3] -0.225 | [4] 0.05 | tipifarnib 0.064 | [7] 0.011
